Results as given in article PMC5996148.
The list shows a part of the results. For some of these results: The source does not settle which construct or isoform was used.

Columns and labels:
Experiment in all cases: protein microarray (ProtoArray v5.0), streptavidin-Alexa Fluor 647
Conditions in all cases: 3'-biotin; 20 mM Tris (pH 7.5), 5 mM MgCl2, 100 mM KCl, 0.1% Tween-20, A/T-rich and random oligonucleotide blockers; temperature not stated; high values mean tight binding
TRIM11 (human) = tested on: TRIM11 (human)
TRIM23 (human) = tested on: TRIM23 (human)
TRIM31 = target: T1, TRIM31 (UniProt Q9BZY9)
T1 sequence: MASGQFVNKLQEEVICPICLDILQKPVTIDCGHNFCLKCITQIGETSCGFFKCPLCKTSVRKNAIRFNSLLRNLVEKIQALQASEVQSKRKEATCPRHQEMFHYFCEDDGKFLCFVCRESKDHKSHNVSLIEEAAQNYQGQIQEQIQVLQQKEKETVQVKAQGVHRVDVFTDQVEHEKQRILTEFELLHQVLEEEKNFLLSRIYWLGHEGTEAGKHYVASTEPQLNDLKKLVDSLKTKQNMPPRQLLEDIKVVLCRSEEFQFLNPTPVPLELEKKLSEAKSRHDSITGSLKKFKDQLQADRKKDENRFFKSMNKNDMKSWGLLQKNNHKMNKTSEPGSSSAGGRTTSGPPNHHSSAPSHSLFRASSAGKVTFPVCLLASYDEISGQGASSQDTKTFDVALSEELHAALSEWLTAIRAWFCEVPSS

TRIM32 (human) = tested on: TRIM32 (human)
TRIM44 (human) = tested on: TRIM44 (human)
TRIM62 (human) = tested on: TRIM62 (human)
TRIM63 (human) = tested on: TRIM63 (human)
TRIM69 = target: T2, TRIM69 (UniProt Q86WT6)
T2 sequence: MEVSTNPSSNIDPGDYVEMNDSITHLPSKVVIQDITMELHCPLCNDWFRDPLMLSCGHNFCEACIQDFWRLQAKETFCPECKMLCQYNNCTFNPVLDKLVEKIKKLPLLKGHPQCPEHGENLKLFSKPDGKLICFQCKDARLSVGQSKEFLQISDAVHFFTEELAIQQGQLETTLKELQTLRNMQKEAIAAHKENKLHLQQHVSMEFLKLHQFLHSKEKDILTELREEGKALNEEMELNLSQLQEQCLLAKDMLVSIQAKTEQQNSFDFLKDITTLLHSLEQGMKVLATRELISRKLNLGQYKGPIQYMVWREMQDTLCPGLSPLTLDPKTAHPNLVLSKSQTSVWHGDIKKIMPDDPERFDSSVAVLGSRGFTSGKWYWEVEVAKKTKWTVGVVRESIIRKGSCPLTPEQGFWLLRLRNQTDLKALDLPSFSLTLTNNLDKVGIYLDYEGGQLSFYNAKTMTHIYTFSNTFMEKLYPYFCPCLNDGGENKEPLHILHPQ

TRIML1 = target: T3, TRIML1 (UniProt Q8N9V2)
T3 sequence: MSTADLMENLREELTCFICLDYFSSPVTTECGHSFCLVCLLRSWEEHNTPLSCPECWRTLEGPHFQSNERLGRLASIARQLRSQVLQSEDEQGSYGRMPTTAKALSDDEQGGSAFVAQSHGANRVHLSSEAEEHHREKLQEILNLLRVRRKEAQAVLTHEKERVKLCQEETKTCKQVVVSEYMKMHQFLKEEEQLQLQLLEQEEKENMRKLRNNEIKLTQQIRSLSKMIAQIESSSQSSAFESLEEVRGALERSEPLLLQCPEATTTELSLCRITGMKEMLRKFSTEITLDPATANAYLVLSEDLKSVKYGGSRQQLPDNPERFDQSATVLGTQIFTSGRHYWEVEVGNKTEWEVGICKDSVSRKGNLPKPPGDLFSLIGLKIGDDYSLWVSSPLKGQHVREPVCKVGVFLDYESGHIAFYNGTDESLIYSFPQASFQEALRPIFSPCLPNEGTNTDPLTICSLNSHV

TRMT1 (human) = tested on: TRMT1 (human)

Sequence: GGGAGGCTGAGGCAGG [G4-1 biotinylated (PQS2)]
- binding signal (TRIM11 (human)): -0.358 z-score
- binding signal (TRIM23 (human)): -0.297 z-score
- binding signal (TRIM31): -0.321 z-score
- binding signal (TRIM32 (human)): -0.341 z-score
- binding signal (TRIM44 (human)): -0.367 z-score
- binding signal (TRIM62 (human)): -0.287 z-score
- binding signal (TRIM63 (human)): -0.357 z-score
- binding signal (TRIM69): -0.331 z-score
- binding signal (TRIML1): -0.285 z-score
- binding signal (TRMT1 (human)): -0.267 z-score
